Test results published in patent US20220280437A1, “FORMULATION” (priority 2019, published 2022).
Where a name gives a salt, the structure may show the parent alone.

Experiment: physchem
Format: physicochemical
Conditions: pH 7
Description: Note that, in the present invention, the octanol/water partition coefficient is determined based on active ingredient concentration of each phase by adding an active ingredient to a flask containing octanol and an aqueous buffer of pH 7, then shaking the flask, and determining the concentration. Specifically, it can be determined by calculation using an equation: Octanol/water partition coefficient=Log10 (concentration in octanol phase/concentration in aqueous phase).

## COc1cc2c(cc1OC)C(=O)C(CC1CCN(Cc3ccccc3)CC1)C2 (centres unmarked) [donepezil hydrochloride]
  logD: 4.3
  octanol/water partition coefficient: 4.3
